Laboratory results as given in article PMC7329812 (Scientific Reports, 2020).

The chains behind the UniProt entries cited, without tags or fusion partners. Residues count along the entry.
UniProt Q9KCR8, 1-274: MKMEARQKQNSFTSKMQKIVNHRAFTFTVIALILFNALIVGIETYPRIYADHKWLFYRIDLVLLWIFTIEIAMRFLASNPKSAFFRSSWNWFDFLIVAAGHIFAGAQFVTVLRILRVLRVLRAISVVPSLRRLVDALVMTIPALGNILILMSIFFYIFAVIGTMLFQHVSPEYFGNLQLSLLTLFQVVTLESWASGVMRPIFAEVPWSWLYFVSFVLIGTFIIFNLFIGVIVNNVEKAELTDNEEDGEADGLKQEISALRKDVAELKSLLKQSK

Target: NaChBac (Halalkalibacterium halodurans (Bacillus halodurans), UniProt Q9KCR8)
Assay type: cell-based
Details: hek 293 cells

## Cc1ccccc1C(OCCN(C)C)c1ccccc1 (stereo not shown) [Orphenadrine]
  % of block in NaChBac: 76.6±1.1%
